# Record: PubChem BioAssay AID1508597 (Cure First, 2020)
# Assay: 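Knock-downs altering ovarian cancer cell survival with or without PARP inhibitor rucaparib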 (primary screen)
# Cells: human ovarian carcinoma lines grown from tumours: OCI-P5x (papillary serous) and OCI-C5x (clear cell)
# Knock-down reagent: siRNA pool against human genes, 1.25 pmol siRNA per well
# Duration: 72 h or 96 h, depending on the cell culture
# Treatment: rucaparib 20 µM (about IC30) or vehicle, present until read-out
# Rucaparib or vehicle: Rucaparib
# Cell line: OCI-C5x (clear cell)
# Read-out: 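ATP luminescence measured at 72 or 96 h according to the culture, then normalised and expressed as percent viability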
# Direction: viability, normalised: higher = more viable cells remaining
# Hit rule: 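a well counts as a hit if its normalised viability is under 80 percent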
# Calls: active = viability under 80%; inactive = viability 80% or more
# This is an unselected part of the about 2,100 reagents, in one setting of the screen. 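Calls flag viability under 80% in either arm, not effects specific to rucaparib; the reference for percent is not stated.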 Some reagents were tested in more than one well and are listed for each. No sequences are given here. The record does not give: the 100% reference.
gene knocked down,technical replicate,"viability, normalised (%)",call
GRK1,1,36.3,active
GRK1,1,64.3,active
GRK1,1,59.6,active
GRK1,2,44.7,active
GRK1,2,68.8,active
GRK1,2,35.3,active
GRK1,3,69.7,active
GRK1,3,64.8,active
GRK1,3,29.6,active
BACC1,1,76.8,active
BACC1,1,62.9,active
BACC1,2,42.2,active
BACC1,2,49.4,active
BACC1,3,53.9,active
BACC1,3,59.4,active
GADD45G,1,47.9,active
GADD45G,2,47.3,active
GADD45G,3,40.8,active
TRIM24,1,85.2,inactive
TRIM24,1,42,active
TRIM24,2,43.5,active
TRIM24,2,52.2,active
TRIM24,3,43.4,active

A stretch taken from the entries so far:
gene knocked down,technical replicate,"viability, normalised (%)",call
TRIM24,1,42,active
TRIM24,2,43.5,active
